Measured values taken from patent US5783179A (Syntex (U.S.A.) Inc., priority 1991, dated 1998).

Assay: general procedure: Boc solid-phase peptide synthesis; Boc-Leu-O-resin; N,N'-diisopropylcarbodiimide (DIC)
Conditions: whole synthesis, analytical HPLC (UV monitor), scale 1.0 mmol

PEPTIDE1{I.Y.L.G.G.P.F.S.P.N.V.L}$$$$V2.0
final HPLC purity: >95%

Some peptides are written in HELM: one residue between dots, names in brackets for other building blocks, links after the first $.
